# Most entries show no effect beyond the scatter of the controls.
# Assays:
# Test in all cases: normalised response (% of control), CellTox Green; higher = less cell death (100 = DMSO, 0 = benzethonium chloride kill control)
# Details in all cases: incubation time: 72 h
# HCC1599 = test system: HCC1599
# Protocol: (§1)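 DSRT, 72 h incubation, CellTox Green / CellTiter-Glo readout. Signal is normalised to DMSO and benzethonium chloride controls. Value is the normalised response at dose 2.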
# CAL-120 = test system: CAL-120
# Protocol: as §1
# MDA-MB-453 = test system: MDA-MB-453
# Protocol: as §1
# CAL-85-1 = test system: CAL-85-1
# Protocol: as §1
# CAL-51 = test system: CAL-51
# Protocol: as §1
# DU-4475 = test system: DU-4475
# Protocol: as §1
# CAL-148 = test system: CAL-148
# Protocol: as §1
# BT-474 = test system: BT-474
# Protocol: as §1
# BT-549 = test system: BT-549
# Protocol: as §1
# MCF-10A = test system: MCF-10A
# Protocol: as §1
# MDA-MB-468 = test system: MDA-MB-468
# Protocol: as §1
# MDA-MB-231 = test system: MDA-MB-231
# Protocol: as §1
# MDA-MB-436 = test system: MDA-MB-436
# Protocol: as §1
# MFM-223 = test system: MFM-223
# Protocol: as §1
# Hs578T = test system: Hs578T
# Protocol: as §1
# HCC1937 = test system: HCC1937
# Protocol: as §1
# HCC1143 = test system: HCC1143
# Protocol: as §1
# HDQ-P1 = test system: HDQ-P1
# Protocol: as §1
Structure (SMILES),normalised response (HCC1599),normalised response (CAL-120),normalised response (MDA-MB-453),normalised response (CAL-85-1),normalised response (CAL-51),normalised response (DU-4475),normalised response (CAL-148),normalised response (BT-474),normalised response (BT-549),normalised response (MCF-10A),normalised response (MDA-MB-468),normalised response (MDA-MB-231),normalised response (MDA-MB-436),normalised response (MFM-223),normalised response (Hs578T),normalised response (HCC1937),normalised response (HCC1143),normalised response (HDQ-P1)
CN(c1ccccc1CNc1nc(Nc2ccc3c(c2)CC(=O)N3)ncc1C(F)(F)F)S(C)(=O)=O (10 nM),96.1%,100%,91.9%,95.1%,96.4%,94.7%,105%,98.9%,103%,100%,115%,94.6%,85.3%,99.1%,108%,99.3%,91.5%,–
O=C(O)C1(C(=O)O)CCC1.[NH2-].[NH2-].[Pt+2] [Carboplatin] (10 nM),102%,98.7%,103%,98.6%,94%,96.9%,103%,105%,100%,102%,143%,112%,62.9%,91.3%,129%,–,109%,111%
Cc1ccc(-c2cc(C(F)(F)F)nn2-c2ccc(S(N)(=O)=O)cc2)cc1 [Celecoxib] (10 nM),90%,102%,98.2%,104%,106%,95.9%,105%,101%,71.5%,97.2%,76.8%,104%,73.8%,99.4%,112%,–,99.6%,115%
O=P1(N(CCCl)CCCl)NCCCO1 (centres undefined) [Cyclophosphamide] (40 nM),96.9%,101%,95.9%,102%,100%,97.8%,105%,–,101%,96.8%,103%,112%,99.7%,99.7%,111%,107%,93.5%,57%
COc1cccc2c1C(=O)c1c(O)c3c(c(O)c1C2=O)C[C@@](O)(C(C)=O)C[C@@H]3O[C@H]1C[C@H](N)[C@H](O)[C@H](C)O1 [Daunorubicin] (1 nM),99.7%,102%,96.5%,103%,105%,99.1%,106%,103%,95.7%,87.1%,82%,111%,–,97.5%,53.5%,115%,117%,111%
COc1cccc2cc(-c3nc([C@H]4CC[C@H](C(=O)O)CC4)n4ncnc(N)c34)[nH]c12 [OSI-027] (10 nM),105%,99.7%,108%,96.5%,63.2%,102%,57%,100%,95.6%,101%,67.6%,98%,110%,90.9%,120%,–,104%,109%
Nc1nc2[nH]cc(CCc3ccc(C(=O)N[C@@H](CCC(=O)O)C(=O)O)cc3)c2c(=O)[nH]1 [Pemetrexed] (10 nM),104%,98.8%,84.1%,93.4%,86.2%,95.3%,97.8%,101%,91.7%,–,63.2%,96.6%,104%,99.3%,119%,104%,95.1%,96.2%
Cn1cnc2c(F)c(Nc3ccc(Br)cc3Cl)c(C(=O)NOCCO)cc21 [Selumetinib] (10 nM),76.4%,97%,95.4%,100%,96%,94.4%,54.1%,92.9%,101%,102%,83.9%,87.1%,57.5%,–,75.7%,–,76.5%,110%
COc1cc2/c(=N/c3ccc(Br)cc3F)nc[nH]c2cc1OCC1CCN(C)CC1 [Vandetanib] (1 nM),91.6%,94.4%,74.6%,97.1%,91.3%,91%,97.3%,95.3%,56%,79%,–,91.4%,79.4%,93.2%,–,83.2%,93.7%,110%

# Reference: the supplement of paper PMC4862054
